Measured values published in the supplement of paper PMC12067093, “Discovery and optimisation of a covalent ligand for TRIM25 and its application to targeted protein ubiquitination” (Chemical Science, 2025).
This is one part of the list.

The targets below were run with Cc1cc(ccc1-c1ccccc1)C(=O)N1CCCN(CC1)C(=O)CCl [compound 10] (assay: probe-labelled cysteine peptide fold change vs DMSO (competition) (log2 fold change); higher = less target engagement (more negative = stronger competition)). Conditions: 10 µM; THP-1; incubation time: 4 h.
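Also: competitive profiling in live THP-1 cells: cysteine peptides tagged with an iodoacetamide desthiobiotin (IA-DTB) probe, intensity after compound treatment relative to DMSO-treated cells.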

| Target | probe-labelled cysteine peptide fold change |
| --- | --- |
| NCAPG_Q9BPX3_751_HCLGVFFPVFAYASR (UniProt Q9BPX3) | -0.0707 |
| NAGA_P17050_38+42_CNINCDEDPK (UniProt P17050) | 0.0241 |
| NBEAL2_Q6ZNJ1_1619_REEACYVLSK (UniProt Q6ZNJ1) | -0.075 |
| NAGA_P17050_343_ASALVFFSCR (UniProt P17050) | -0.066 |
| MYO18A_Q92614_1164_SSCCMGLSR (UniProt Q92614) | 0.000388 |
| NCBP1_Q09161_477_ILDIVPPTFSALCPANPTCIYK (UniProt Q09161) | 0.202 |
| N4BP1_O75113_89_DMHCIFVGAESLFLK (UniProt O75113) | -0.00521 |
| MYO1F_O00160_807_GQVCEVLKK (UniProt O00160) | -0.225 |
| NCAPG2_Q86XI2_826_AFGLHCR (UniProt Q86XI2) | -0.0366 |
| MYO6_Q9UM54_362_VVAGVLHLGNIDFEEAGSTSGGCNLK (UniProt Q9UM54) | -0.00821 |
| MYO9B_Q13459_1169_HIQSCK (UniProt Q13459) | -0.0592 |
| NCAPD2_Q15021_596_ESTGNMVTGQTVCK (UniProt Q15021) | -0.274 |
| NAT1_P18440_233_SFCSLQTPDGVHCLVGFTLTHR (UniProt P18440) | -0.16 |
| NCAPD2_Q15021_1249_MLDNFDCFGDK (UniProt Q15021) | -0.0542 |
| NCAPH2_Q6IBW4_230_DTGRTEEQPMEVSVCR (UniProt Q6IBW4) | -0.479 |
| MYO18A_Q92614_404_ANAPSCDRLEDLASLVYLNESSVLHTLR (UniProt Q92614) | -0.129 |
| NCEH1_Q6PIU2_345_TYILTCEHDVLRDDGIMYAK (UniProt Q6PIU2) | 0.158 |
| NCKAP1L_P55160_1032_DGYNNNIHCLTK (UniProt P55160) | -0.169 |
| MYO1C_O00159_802_CPENAFFLDHVR (UniProt O00159) | -0.271 |

| Target | probe-labelled cysteine peptide fold change |
| --- | --- |
| NANS_Q9NR45_8_PLELELCPGR (UniProt Q9NR45) | 0.115 |
| MYO9B_Q13459_62_CYVLVEVK (UniProt Q13459) | 0.169 |
| NCBP1_Q09161_332_KTCAAQLVSYPGK (UniProt Q09161) | -0.0591 |
| NAP1L1_P55209_388_DQNPAECK (UniProt P55209) | 0.124 |
| NBEAL2_Q6ZNJ1_142_GTQLENVALHALLLCEGLFDPYQTWR (UniProt Q6ZNJ1) | 0.147 |
| NAA35_Q5VZE5_409_CYLYNNHQAK (UniProt Q5VZE5) | -0.0926 |
| NARS_O43776_342_RHLAEYTHVEAECPFLTFDDLLNR (UniProt O43776) | 0.137 |
| NAA15_Q9BXJ9_529_HFIEITDDQFDFHTYCMR (UniProt Q9BXJ9) | -0.0377 |
| MYOF_Q9NZM1_1131_HSATTVFGANTPIVSCNFDR (UniProt Q9NZM1) | -0.0575 |
| NCBP1_Q09161_332_TCAAQLVSYPGK (UniProt Q09161) | -0.13 |
| NAPA_P54920_84_HDAATCFVDAGNAFKK (UniProt P54920) | 0.00454 |
| NASP_P49321_254_SVSGTDVQEECR (UniProt P49321) | 0.127 |
| NACC2_Q96BF6_441_ESEMNVIAADMCTNAR (UniProt Q96BF6) | 0.172 |
| NBAS_A2RRP1_1771_LQYYFTLLENCGCADLGNCAIKPETHIR (UniProt A2RRP1) | -0.181 |
| NCAPH_Q15003_239_CEIDPMFQK (UniProt Q15003) | -0.0722 |
| NARS_O43776_511_KYGTCPHGGYGLGLER (UniProt O43776) | -0.519 |
| MYO1G_B0I1T2_655_MTCEYTWPNHLLGSDK (UniProt B0I1T2) | 0.0888 |
| NAPRT_Q6XQN6_463_VWPPGAQEPCTVRPAQVEPLLR (UniProt Q6XQN6) | -0.107 |
| NCAPG2_Q86XI2_285_ILEAIENDCIQDFMFHGIHLPR (UniProt Q86XI2) | -0.0654 |

Same assay, conditions: 50 µM; THP-1; incubation time: 4 h

| Target | probe-labelled cysteine peptide fold change |
| --- | --- |
| NCAPG_Q9BPX3_751_HCLGVFFPVFAYASR (UniProt Q9BPX3) | -0.0217 |
| NAGA_P17050_38+42_CNINCDEDPK (UniProt P17050) | -0.131 |
| NBEAL2_Q6ZNJ1_1619_REEACYVLSK (UniProt Q6ZNJ1) | -0.00801 |
| NAGA_P17050_343_ASALVFFSCR (UniProt P17050) | 0.1 |
| MYO18A_Q92614_1164_SSCCMGLSR (UniProt Q92614) | -0.0802 |
| NCBP1_Q09161_477_ILDIVPPTFSALCPANPTCIYK (UniProt Q09161) | -0.118 |
| N4BP1_O75113_89_DMHCIFVGAESLFLK (UniProt O75113) | -0.223 |
| MYO1F_O00160_807_GQVCEVLKK (UniProt O00160) | -0.287 |
| NCAPG2_Q86XI2_826_AFGLHCR (UniProt Q86XI2) | 0.0971 |
| MYO6_Q9UM54_362_VVAGVLHLGNIDFEEAGSTSGGCNLK (UniProt Q9UM54) | 0.0127 |
| MYO9B_Q13459_1169_HIQSCK (UniProt Q13459) | -0.369 |
| NCAPD2_Q15021_596_ESTGNMVTGQTVCK (UniProt Q15021) | -0.688 |
| NAT1_P18440_233_SFCSLQTPDGVHCLVGFTLTHR (UniProt P18440) | -0.0253 |
| NCAPD2_Q15021_1249_MLDNFDCFGDK (UniProt Q15021) | 0.0509 |
| NCAPH2_Q6IBW4_230_DTGRTEEQPMEVSVCR (UniProt Q6IBW4) | -0.423 |
| MYO18A_Q92614_404_ANAPSCDRLEDLASLVYLNESSVLHTLR (UniProt Q92614) | -0.0504 |
| NCEH1_Q6PIU2_345_TYILTCEHDVLRDDGIMYAK (UniProt Q6PIU2) | 0.0255 |
| NCKAP1L_P55160_1032_DGYNNNIHCLTK (UniProt P55160) | 0.171 |
| MYO1C_O00159_802_CPENAFFLDHVR (UniProt O00159) | 0.0209 |

| Target | probe-labelled cysteine peptide fold change |
| --- | --- |
| NANS_Q9NR45_8_PLELELCPGR (UniProt Q9NR45) | -0.239 |
| MYO9B_Q13459_62_CYVLVEVK (UniProt Q13459) | -0.198 |
| NCBP1_Q09161_332_KTCAAQLVSYPGK (UniProt Q09161) | -0.681 |
| NAP1L1_P55209_388_DQNPAECK (UniProt P55209) | 0.514 |
| NBEAL2_Q6ZNJ1_142_GTQLENVALHALLLCEGLFDPYQTWR (UniProt Q6ZNJ1) | 0.105 |
| NAA35_Q5VZE5_409_CYLYNNHQAK (UniProt Q5VZE5) | -0.537 |
| NARS_O43776_342_RHLAEYTHVEAECPFLTFDDLLNR (UniProt O43776) | 0.182 |
| NAA15_Q9BXJ9_529_HFIEITDDQFDFHTYCMR (UniProt Q9BXJ9) | 0.191 |
| MYOF_Q9NZM1_1131_HSATTVFGANTPIVSCNFDR (UniProt Q9NZM1) | 0.00786 |
| NCBP1_Q09161_332_TCAAQLVSYPGK (UniProt Q09161) | -0.141 |
| NAPA_P54920_84_HDAATCFVDAGNAFKK (UniProt P54920) | -0.097 |
| NASP_P49321_254_SVSGTDVQEECR (UniProt P49321) | 0.0137 |
| NACC2_Q96BF6_441_ESEMNVIAADMCTNAR (UniProt Q96BF6) | -0.264 |
| NBAS_A2RRP1_1771_LQYYFTLLENCGCADLGNCAIKPETHIR (UniProt A2RRP1) | -0.206 |
| NCAPH_Q15003_239_CEIDPMFQK (UniProt Q15003) | -0.205 |
| NARS_O43776_511_KYGTCPHGGYGLGLER (UniProt O43776) | 0.0682 |
| MYO1G_B0I1T2_655_MTCEYTWPNHLLGSDK (UniProt B0I1T2) | 0.0482 |
| NAPRT_Q6XQN6_463_VWPPGAQEPCTVRPAQVEPLLR (UniProt Q6XQN6) | -0.0643 |
| NCAPG2_Q86XI2_285_ILEAIENDCIQDFMFHGIHLPR (UniProt Q86XI2) | 0.21 |
